According to US20180214542A1:
These are yes or no findings as the source states them, for the method shown. Some entries that bind do so weakly or less than the wild type.

Sequences of proteins named here, by UniProt entry; tags and fusion partners are left off.
UniProt P49682: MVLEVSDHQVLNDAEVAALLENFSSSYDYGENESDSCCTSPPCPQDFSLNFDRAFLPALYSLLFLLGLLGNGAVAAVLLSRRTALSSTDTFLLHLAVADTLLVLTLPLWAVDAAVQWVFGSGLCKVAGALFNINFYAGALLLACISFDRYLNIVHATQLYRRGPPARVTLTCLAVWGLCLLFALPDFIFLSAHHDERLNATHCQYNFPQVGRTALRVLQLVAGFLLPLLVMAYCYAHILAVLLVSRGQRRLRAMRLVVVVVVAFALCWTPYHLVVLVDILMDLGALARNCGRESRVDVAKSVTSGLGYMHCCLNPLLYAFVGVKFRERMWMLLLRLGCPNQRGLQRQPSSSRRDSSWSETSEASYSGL

Molecular target: recombinant human CXCR3 (human) (UniProt P49682)
Assay: Biacore, binding avidity to recombinant human CXCR3

Binder | binding
53Hu37 variant VH N105F / VL S92R (antibody, V domains shown) VH: EVQLLESGGGLVQPGGSLRLSCAASGFTFTSYAMSWVRQAPGKGLEWVATISHGGTYTYYPDSVKGRFTISRDNAKNTLYLQMNSLRAEDTAVYYCARHPIYSGFYQGYFDYWGQGTLVTVSS VL: DIQLTQSPSFLSASVGDRVTITCRASSGVNYLYWYQQKPGKAPKLWIYFTSTLASGVPSRFSGSGSGNEYTLTISSLQPEDFATYYCQQFTRSPYTFGQGTKLEIK | binds
53Hu37 variant VH N105W / VL S92R (antibody, V domains shown) VH: EVQLLESGGGLVQPGGSLRLSCAASGFTFTSYAMSWVRQAPGKGLEWVATISHGGTYTYYPDSVKGRFTISRDNAKNTLYLQMNSLRAEDTAVYYCARHPIYSGWYQGYFDYWGQGTLVTVSS VL: DIQLTQSPSFLSASVGDRVTITCRASSGVNYLYWYQQKPGKAPKLWIYFTSTLASGVPSRFSGSGSGNEYTLTISSLQPEDFATYYCQQFTRSPYTFGQGTKLEIK | binds
53Hu37 variant VH N105W / VL 53Hu37 (antibody, V domains shown) VH: EVQLLESGGGLVQPGGSLRLSCAASGFTFTSYAMSWVRQAPGKGLEWVATISHGGTYTYYPDSVKGRFTISRDNAKNTLYLQMNSLRAEDTAVYYCARHPIYSGWYQGYFDYWGQGTLVTVSS VL: DIQLTQSPSFLSASVGDRVTITCRASSGVNYLYWYQQKPGKAPKLWIYFTSTLASGVPSRFSGSGSGNEYTLTISSLQPEDFATYYCQQFTSSPYTFGQGTKLEIK | binds
53Hu37 variant VH S103A / VL N30R/S92R (antibody, V domains shown) VH: EVQLLESGGGLVQPGGSLRLSCAASGFTFTSYAMSWVRQAPGKGLEWVATISHGGTYTYYPDSVKGRFTISRDNAKNTLYLQMNSLRAEDTAVYYCARHPIYAGNYQGYFDYWGQGTLVTVSS VL: DIQLTQSPSFLSASVGDRVTITCRASSGVRYLYWYQQKPGKAPKLWIYFTSTLASGVPSRFSGSGSGNEYTLTISSLQPEDFATYYCQQFTRSPYTFGQGTKLEIK | binds
53Hu37 variant VH S103C / VL N30R/S92R (antibody, V domains shown) VH: EVQLLESGGGLVQPGGSLRLSCAASGFTFTSYAMSWVRQAPGKGLEWVATISHGGTYTYYPDSVKGRFTISRDNAKNTLYLQMNSLRAEDTAVYYCARHPIYCGNYQGYFDYWGQGTLVTVSS VL: DIQLTQSPSFLSASVGDRVTITCRASSGVRYLYWYQQKPGKAPKLWIYFTSTLASGVPSRFSGSGSGNEYTLTISSLQPEDFATYYCQQFTRSPYTFGQGTKLEIK | binds
53Hu37 variant VH S103D / VL N30R/S92R (antibody, V domains shown) VH: EVQLLESGGGLVQPGGSLRLSCAASGFTFTSYAMSWVRQAPGKGLEWVATISHGGTYTYYPDSVKGRFTISRDNAKNTLYLQMNSLRAEDTAVYYCARHPIYDGNYQGYFDYWGQGTLVTVSS VL: DIQLTQSPSFLSASVGDRVTITCRASSGVRYLYWYQQKPGKAPKLWIYFTSTLASGVPSRFSGSGSGNEYTLTISSLQPEDFATYYCQQFTRSPYTFGQGTKLEIK | binds
53Hu37 variant VH S103E / VL N30R/S92R (antibody, V domains shown) VH: EVQLLESGGGLVQPGGSLRLSCAASGFTFTSYAMSWVRQAPGKGLEWVATISHGGTYTYYPDSVKGRFTISRDNAKNTLYLQMNSLRAEDTAVYYCARHPIYEGNYQGYFDYWGQGTLVTVSS VL: DIQLTQSPSFLSASVGDRVTITCRASSGVRYLYWYQQKPGKAPKLWIYFTSTLASGVPSRFSGSGSGNEYTLTISSLQPEDFATYYCQQFTRSPYTFGQGTKLEIK | binds
53Hu37 variant VH S103F / VL N30R/S92R (antibody, V domains shown) VH: EVQLLESGGGLVQPGGSLRLSCAASGFTFTSYAMSWVRQAPGKGLEWVATISHGGTYTYYPDSVKGRFTISRDNAKNTLYLQMNSLRAEDTAVYYCARHPIYFGNYQGYFDYWGQGTLVTVSS VL: DIQLTQSPSFLSASVGDRVTITCRASSGVRYLYWYQQKPGKAPKLWIYFTSTLASGVPSRFSGSGSGNEYTLTISSLQPEDFATYYCQQFTRSPYTFGQGTKLEIK | binds
53Hu37 variant VH S103G / VL N30R/S92R (antibody, V domains shown) VH: EVQLLESGGGLVQPGGSLRLSCAASGFTFTSYAMSWVRQAPGKGLEWVATISHGGTYTYYPDSVKGRFTISRDNAKNTLYLQMNSLRAEDTAVYYCARHPIYGGNYQGYFDYWGQGTLVTVSS VL: DIQLTQSPSFLSASVGDRVTITCRASSGVRYLYWYQQKPGKAPKLWIYFTSTLASGVPSRFSGSGSGNEYTLTISSLQPEDFATYYCQQFTRSPYTFGQGTKLEIK | binds
53Hu37 variant VH S103H / VL N30R/S92R (antibody, V domains shown) VH: EVQLLESGGGLVQPGGSLRLSCAASGFTFTSYAMSWVRQAPGKGLEWVATISHGGTYTYYPDSVKGRFTISRDNAKNTLYLQMNSLRAEDTAVYYCARHPIYHGNYQGYFDYWGQGTLVTVSS VL: DIQLTQSPSFLSASVGDRVTITCRASSGVRYLYWYQQKPGKAPKLWIYFTSTLASGVPSRFSGSGSGNEYTLTISSLQPEDFATYYCQQFTRSPYTFGQGTKLEIK | binds
53Hu37 variant VH S103I / VL N30R/S92R (antibody, V domains shown) VH: EVQLLESGGGLVQPGGSLRLSCAASGFTFTSYAMSWVRQAPGKGLEWVATISHGGTYTYYPDSVKGRFTISRDNAKNTLYLQMNSLRAEDTAVYYCARHPIYIGNYQGYFDYWGQGTLVTVSS VL: DIQLTQSPSFLSASVGDRVTITCRASSGVRYLYWYQQKPGKAPKLWIYFTSTLASGVPSRFSGSGSGNEYTLTISSLQPEDFATYYCQQFTRSPYTFGQGTKLEIK | binds
53Hu37 variant VH S103K / VL N30R/S92R (antibody, V domains shown) VH: EVQLLESGGGLVQPGGSLRLSCAASGFTFTSYAMSWVRQAPGKGLEWVATISHGGTYTYYPDSVKGRFTISRDNAKNTLYLQMNSLRAEDTAVYYCARHPIYKGNYQGYFDYWGQGTLVTVSS VL: DIQLTQSPSFLSASVGDRVTITCRASSGVRYLYWYQQKPGKAPKLWIYFTSTLASGVPSRFSGSGSGNEYTLTISSLQPEDFATYYCQQFTRSPYTFGQGTKLEIK | binds
53Hu37 variant VH S103L / VL N30R/S92R (antibody, V domains shown) VH: EVQLLESGGGLVQPGGSLRLSCAASGFTFTSYAMSWVRQAPGKGLEWVATISHGGTYTYYPDSVKGRFTISRDNAKNTLYLQMNSLRAEDTAVYYCARHPIYLGNYQGYFDYWGQGTLVTVSS VL: DIQLTQSPSFLSASVGDRVTITCRASSGVRYLYWYQQKPGKAPKLWIYFTSTLASGVPSRFSGSGSGNEYTLTISSLQPEDFATYYCQQFTRSPYTFGQGTKLEIK | binds
53Hu37 variant VH S103M / VL N30R/S92R (antibody, V domains shown) VH: EVQLLESGGGLVQPGGSLRLSCAASGFTFTSYAMSWVRQAPGKGLEWVATISHGGTYTYYPDSVKGRFTISRDNAKNTLYLQMNSLRAEDTAVYYCARHPIYMGNYQGYFDYWGQGTLVTVSS VL: DIQLTQSPSFLSASVGDRVTITCRASSGVRYLYWYQQKPGKAPKLWIYFTSTLASGVPSRFSGSGSGNEYTLTISSLQPEDFATYYCQQFTRSPYTFGQGTKLEIK | binds
53Hu37 variant VH S103N / VL N30R/S92R (antibody, V domains shown) VH: EVQLLESGGGLVQPGGSLRLSCAASGFTFTSYAMSWVRQAPGKGLEWVATISHGGTYTYYPDSVKGRFTISRDNAKNTLYLQMNSLRAEDTAVYYCARHPIYNGNYQGYFDYWGQGTLVTVSS VL: DIQLTQSPSFLSASVGDRVTITCRASSGVRYLYWYQQKPGKAPKLWIYFTSTLASGVPSRFSGSGSGNEYTLTISSLQPEDFATYYCQQFTRSPYTFGQGTKLEIK | binds
53Hu37 variant VH S103P / VL N30R/S92R (antibody, V domains shown) VH: EVQLLESGGGLVQPGGSLRLSCAASGFTFTSYAMSWVRQAPGKGLEWVATISHGGTYTYYPDSVKGRFTISRDNAKNTLYLQMNSLRAEDTAVYYCARHPIYPGNYQGYFDYWGQGTLVTVSS VL: DIQLTQSPSFLSASVGDRVTITCRASSGVRYLYWYQQKPGKAPKLWIYFTSTLASGVPSRFSGSGSGNEYTLTISSLQPEDFATYYCQQFTRSPYTFGQGTKLEIK | binds
53Hu37 variant VH S103Q / VL N30R/S92R (antibody, V domains shown) VH: EVQLLESGGGLVQPGGSLRLSCAASGFTFTSYAMSWVRQAPGKGLEWVATISHGGTYTYYPDSVKGRFTISRDNAKNTLYLQMNSLRAEDTAVYYCARHPIYQGNYQGYFDYWGQGTLVTVSS VL: DIQLTQSPSFLSASVGDRVTITCRASSGVRYLYWYQQKPGKAPKLWIYFTSTLASGVPSRFSGSGSGNEYTLTISSLQPEDFATYYCQQFTRSPYTFGQGTKLEIK | binds
53Hu37 variant VH S103R / VL N30R/S92R (antibody, V domains shown) VH: EVQLLESGGGLVQPGGSLRLSCAASGFTFTSYAMSWVRQAPGKGLEWVATISHGGTYTYYPDSVKGRFTISRDNAKNTLYLQMNSLRAEDTAVYYCARHPIYRGNYQGYFDYWGQGTLVTVSS VL: DIQLTQSPSFLSASVGDRVTITCRASSGVRYLYWYQQKPGKAPKLWIYFTSTLASGVPSRFSGSGSGNEYTLTISSLQPEDFATYYCQQFTRSPYTFGQGTKLEIK | binds
53Hu37 variant VH S103T / VL N30R/S92R (antibody, V domains shown) VH: EVQLLESGGGLVQPGGSLRLSCAASGFTFTSYAMSWVRQAPGKGLEWVATISHGGTYTYYPDSVKGRFTISRDNAKNTLYLQMNSLRAEDTAVYYCARHPIYTGNYQGYFDYWGQGTLVTVSS VL: DIQLTQSPSFLSASVGDRVTITCRASSGVRYLYWYQQKPGKAPKLWIYFTSTLASGVPSRFSGSGSGNEYTLTISSLQPEDFATYYCQQFTRSPYTFGQGTKLEIK | binds
53Hu37 variant VH S103V / VL N30R/S92R (antibody, V domains shown) VH: EVQLLESGGGLVQPGGSLRLSCAASGFTFTSYAMSWVRQAPGKGLEWVATISHGGTYTYYPDSVKGRFTISRDNAKNTLYLQMNSLRAEDTAVYYCARHPIYVGNYQGYFDYWGQGTLVTVSS VL: DIQLTQSPSFLSASVGDRVTITCRASSGVRYLYWYQQKPGKAPKLWIYFTSTLASGVPSRFSGSGSGNEYTLTISSLQPEDFATYYCQQFTRSPYTFGQGTKLEIK | binds
53Hu37 variant VH S103W / VL N30R/S92R (antibody, V domains shown) VH: EVQLLESGGGLVQPGGSLRLSCAASGFTFTSYAMSWVRQAPGKGLEWVATISHGGTYTYYPDSVKGRFTISRDNAKNTLYLQMNSLRAEDTAVYYCARHPIYWGNYQGYFDYWGQGTLVTVSS VL: DIQLTQSPSFLSASVGDRVTITCRASSGVRYLYWYQQKPGKAPKLWIYFTSTLASGVPSRFSGSGSGNEYTLTISSLQPEDFATYYCQQFTRSPYTFGQGTKLEIK | binds
53Hu37 variant VH S103Y / VL N30R/S92R (antibody, V domains shown) VH: EVQLLESGGGLVQPGGSLRLSCAASGFTFTSYAMSWVRQAPGKGLEWVATISHGGTYTYYPDSVKGRFTISRDNAKNTLYLQMNSLRAEDTAVYYCARHPIYYGNYQGYFDYWGQGTLVTVSS VL: DIQLTQSPSFLSASVGDRVTITCRASSGVRYLYWYQQKPGKAPKLWIYFTSTLASGVPSRFSGSGSGNEYTLTISSLQPEDFATYYCQQFTRSPYTFGQGTKLEIK | binds
